The source of these data is the supplement of paper PMC10338343.

± gives the standard deviation. This is a selection; strong and weak results do not stand in their true shares. Many entries were measured with a wide error. This is one part of the list.

Assay [1] relates to MILI (PIWIL2) piRISC loaded with L1MC piRNA (26 nt). As to the kind of experiment: pre-steady-state target cleavage rate (min^-1); higher = faster piRNA-guided slicing of the target. The conditions noted are these: guide: L1MC piRNA 5'p-UAACUAAAUACUAUGCAAGCUGUAGG
The procedure, abridged:
(§1)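 In Cleave-'n-Seq, a transcribed, DNA-blocked target RNA library (0.1 nM) was combined with 1 nM active affinity-purified piRISC bearing one synthetic guide, with or without 500 nM GTSF1 partner protein. Reactions ran in HEPES–potassium acetate buffer at 33 °C for 0–8 or 0–960 min. Uncleaved targets were sequenced and normalised to depth and to weakly complementary targets, three trials were pooled, and k3 was capped at 0.0001 min^-1. The pre-steady-state cleavage rate was obtained by fitting a burst-and-steady-state model.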

The subject of assay [2] is MIWI (PIWIL1) piRISC loaded with L1MC piRNA (30 nt). Described as above. The conditions noted are these: guide: L1MC piRNA 5'p-UAACUAAAUACUAUGCAAGCUGUAGGUCCU
The procedure, abridged: as §1

The test system of assay [3] is EfPiwi piRISC loaded with L1MC piRNA (26 nt). As to the kind of experiment: pre-steady-state target cleavage rate (min^-1); guide: L1MC piRNA 5'p-UAACUAAAUACUAUGCAAGCUGUAGG; MIWI and MILI are mouse PIWI proteins and EfPiwi is from a freshwater sponge; tags in brackets are library labels; higher = faster piRNA-guided slicing of the target. In outline:
as §1

Where [4] appears, read: auxiliary factor: 500 nM mouse GTSF1.
Setting [5] is: auxiliary factor: none (no GTSF1).
Setting [6] is: auxiliary factor: 500 nM Ephydatia muelleri Gtsf1.

In the case of UCCUGCUACAGGAUGCAUAGUAUUUAGAAA, the “pre-steady-state target cleavage rate” value turned out to be 0.0163 ± 0.0074 in assay [1] (setting [4]), 0.00123 ± 0.0035 in assay [1] (setting [5]), 0.00113 ± 0.0035 in assay [2] (setting [5]) and 0.00248 ± 0.0014 in assay [3] (setting [6]).
Turning to UCCUGGAUGUCGUUGCAUAGUAAUUACUUA, the “pre-steady-state target cleavage rate” value in assay [1] (setting [4]) stood at 0.000116 ± 0.024; in assay [1] (setting [5]), 0.000274 ± 0.025; in assay [2] (setting [5]), 0.000471 ± 0.016; in assay [3] (setting [6]), 0.00019 ± 0.014.
In the case of UCCUGGAUGUCGAUGCAUAGUUUUUUGUUA, the “pre-steady-state target cleavage rate” value in assay [1] (setting [4]) is 0.00354 ± 0.0051; in assay [1] (setting [5]) it was 0.00241 ± 0.0033; in assay [2] (setting [4]), 0.000567 ± 0.015; in assay [3] (setting [6]) it was 0.000173 ± 0.03.
For UCCUGCUACGCUUGCAUAGUAUUUAGUUA, the “pre-steady-state target cleavage rate” value in assay [1] (setting [4]) is 0.291 ± 0.025; in assay [1] (setting [5]), 0.0067 ± 0.0024; in assay [2] (setting [4]), 1.12 ± 0.08; in assay [2] (setting [5]), 0.0532 ± 0.011; in assay [3] (setting [6]) it was 0.0122 ± 0.0033.
On to UCCUGGAUGUCCAUUGCAUAGUAUUUAGUUA, for which the “pre-steady-state target cleavage rate” value in assay [1] (setting [4]) was determined as 0.127 ± 0.032; in assay [1] (setting [5]), 0.00284 ± 0.0039; in assay [2] (setting [5]), 0.00217 ± 0.0034; in assay [3] (auxiliary factor: none (no Gtsf1)) it was 0.00189 ± 0.0054.
Take UCCUGGAUGUCCUUGCAUAUAUUUAGUUA: the “pre-steady-state target cleavage rate” value amounted to 0.00185 ± 0.0071 in assay [1] (setting [4]); 0.000744 ± 0.0062 in assay [1] (setting [5]); 0.00326 ± 0.005 in assay [2] (setting [4]); 0.00158 ± 0.0049 in assay [2] (setting [5]); 0.000425 ± 0.0087 in assay [3] (setting [6]).
On to UCCUGGAACAGCUUGCAUAGUAAAAACAAA, for which the “pre-steady-state target cleavage rate” value in assay [1] (setting [4]) stood at 0.0763 ± 0.031; in assay [1] (setting [5]), 0.000633 ± 0.013; in assay [2] (setting [5]), 0.0015 ± 0.0059; in assay [3] (setting [6]) it was 0.000723 ± 0.0071.
For the sequence UCCUCCUUGUGCUUGCAUAGUAUUUUCAAA, the “pre-steady-state target cleavage rate” value in assay [1] (setting [4]) was 0.0192 ± 0.0073; in assay [1] (setting [5]) it was 0.00157 ± 0.0037; in assay [2] (setting [5]) it was 0.00201 ± 0.0022; in assay [3] (setting [6]) it was 0.00243 ± 0.0033.
With UCCUGGAUGUCCUUGCAUUGUAUUAAGUUA, the “pre-steady-state target cleavage rate” value in assay [1] (setting [4]) was 0.0479 ± 0.012; in assay [1] (setting [5]), 0.00424 ± 0.0019; in assay [2] (setting [4]), 0.00204 ± 0.0062; in assay [2] (setting [5]) it was 0.00118 ± 0.0057; in assay [3] (setting [6]), 0.00113 ± 0.0063.
With UCCUCCUACAGCUUGCUAUGUAUUUUCAAA, the “pre-steady-state target cleavage rate” value in assay [1] (setting [4]) amounted to 0.006 ± 0.0037; in assay [1] (setting [5]), 0.000669 ± 0.006; in assay [2] (setting [5]), 0.000536 ± 0.008; in assay [3] (setting [6]), 0.000897 ± 0.0078.
On to UCCUGGAAGAGCUUCCAUAGUAUUUAGUUA, for which the “pre-steady-state target cleavage rate” value in assay [1] (setting [4]) was determined as 0.297 ± 0.085; in assay [1] (setting [5]), 0.00136 ± 0.0042; in assay [2] (setting [5]), 0.00131 ± 0.0046; in assay [3] (setting [6]) it was 0.00329 ± 0.0011.
Consider UCCUGGAUCAGCUUGCAUAAGUAUUUAGUUA, for which the “pre-steady-state target cleavage rate” value in assay [1] (setting [4]) turned out to be 0.00234 ± 0.0063; in assay [1] (setting [5]), 0.00118 ± 0.0046; in assay [2] (setting [4]) it was 0.00211 ± 0.0066; in assay [2] (setting [5]), 0.000353 ± 0.0085; in assay [3] (setting [6]), 0.00278 ± 0.0031.
Turning to UCCUGGAUGUGGAUGCAUAGUAUUUAGUUA, the “pre-steady-state target cleavage rate” value was found to be 0.092 ± 0.012 in assay [1] (setting [4]), 0.00877 ± 0.0027 in assay [1] (setting [5]), 0.00243 ± 0.0043 in assay [2] (setting [5]) and 0.00943 ± 0.0037 in assay [3] (setting [6]).
Turning to UCCUGGAUCAGCUUGGAUAGUAUUUAGAAA, the “pre-steady-state target cleavage rate” value amounted to 0.0109 ± 0.0051 in assay [1] (setting [4]), 0.000731 ± 0.0065 in assay [1] (setting [5]), 0.00309 ± 0.0042 in assay [2] (setting [5]) and 0.00249 ± 0.0024 in assay [3] (setting [6]).
